These are yes or no findings as the source states them, for the method shown. In cells and extracts the contact can be indirect. Some entries that bind do so weakly or less than the wild type.
Assays:
[1] = molecular target: endogenous HMGA1 (human (endogenous in human microglial cells)) (UniProt P17096); experiment: co-IP; endogenous HMGA1 immunopurified from nuclear extracts of microglial cells with a specific anti-HMGA1 antibody (Abcam); western blot for endogenous CTIP2; boiled anti-HMGA1 IgG as control
HMGA1-FLAG [2] = molecular target: HMGA1-FLAG (UniProt P17096); experiment: co-IP; HMGA1-FLAG immunoprecipitated with M2 anti-FLAG agarose from nuclear extracts of transiently transfected HEK293 cells, in the absence of RNase A; western blot for endogenous proteins; mock-transfected cells as control
HMGA1-FLAG [3] = molecular target: HMGA1-FLAG (UniProt P17096); experiment: co-IP; HMGA1-FLAG immunoprecipitated with M2 anti-FLAG agarose from nuclear extracts of transiently transfected HEK293 cells, in the presence of RNase A; western blot for endogenous proteins; mock-transfected cells as control

By UniProt entry, the sequences of proteins in these tests, tags left out.
UniProt P17096: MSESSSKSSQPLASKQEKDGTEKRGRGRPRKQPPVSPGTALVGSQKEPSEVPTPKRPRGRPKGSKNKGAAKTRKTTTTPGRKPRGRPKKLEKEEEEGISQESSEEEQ
UniProt Q9C0K0: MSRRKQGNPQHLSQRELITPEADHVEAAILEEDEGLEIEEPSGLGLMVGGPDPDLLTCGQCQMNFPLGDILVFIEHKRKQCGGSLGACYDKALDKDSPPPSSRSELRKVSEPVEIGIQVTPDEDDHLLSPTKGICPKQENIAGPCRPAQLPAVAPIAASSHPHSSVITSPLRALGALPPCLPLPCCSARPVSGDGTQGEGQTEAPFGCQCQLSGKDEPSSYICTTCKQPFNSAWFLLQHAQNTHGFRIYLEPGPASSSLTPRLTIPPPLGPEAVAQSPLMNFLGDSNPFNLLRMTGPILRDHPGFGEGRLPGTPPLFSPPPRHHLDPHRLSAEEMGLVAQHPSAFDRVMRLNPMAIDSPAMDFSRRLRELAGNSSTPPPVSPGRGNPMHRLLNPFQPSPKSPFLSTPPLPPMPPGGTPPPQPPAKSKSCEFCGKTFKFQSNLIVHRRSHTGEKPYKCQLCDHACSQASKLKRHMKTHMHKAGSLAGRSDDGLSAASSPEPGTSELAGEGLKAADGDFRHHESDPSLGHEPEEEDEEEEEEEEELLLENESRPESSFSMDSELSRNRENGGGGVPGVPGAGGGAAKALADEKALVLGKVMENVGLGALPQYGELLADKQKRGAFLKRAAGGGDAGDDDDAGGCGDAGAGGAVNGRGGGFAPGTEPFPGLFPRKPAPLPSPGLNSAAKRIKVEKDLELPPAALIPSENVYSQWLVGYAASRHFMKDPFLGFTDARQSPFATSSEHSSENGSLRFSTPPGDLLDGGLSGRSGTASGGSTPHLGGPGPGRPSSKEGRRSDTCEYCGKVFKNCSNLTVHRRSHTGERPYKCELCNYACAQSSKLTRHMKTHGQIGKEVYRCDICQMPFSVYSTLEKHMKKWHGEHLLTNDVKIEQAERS

Measured: binding

chicken ovalbumin upstream promoter transcription factor (COUP-TF) interacting protein 2 (CTIP2) (from UniProt Q9C0K0 1-894)
binds: all assays above

From publication PMC4005653
